Measurements published in patent publication US20050054833A1.
These are yes or no findings as the source states them, for the method shown. Some results given as binding are weak or reduced against the parent protein; the word gives no strength.

Legend:
human CD23 (human) = target: T1, human CD23 (human) (UniProt P06734); assay: competition assay, FIG. 2
T1 sequence (looked up): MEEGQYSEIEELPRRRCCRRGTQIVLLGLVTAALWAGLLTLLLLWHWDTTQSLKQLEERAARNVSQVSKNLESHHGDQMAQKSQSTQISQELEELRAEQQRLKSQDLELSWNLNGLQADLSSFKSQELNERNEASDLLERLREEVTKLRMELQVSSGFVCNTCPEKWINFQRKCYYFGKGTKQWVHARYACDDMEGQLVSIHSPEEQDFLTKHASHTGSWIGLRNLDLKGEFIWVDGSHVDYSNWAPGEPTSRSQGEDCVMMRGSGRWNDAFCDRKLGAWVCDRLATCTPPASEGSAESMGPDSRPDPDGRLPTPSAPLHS

[1] = target: T2, soluble CD23 purified from the supernatant of human RPMI 8866 cells (human) (UniProt P06734); assay: ELISA on soluble CD23 captured by BG-6
T2 sequence (looked up): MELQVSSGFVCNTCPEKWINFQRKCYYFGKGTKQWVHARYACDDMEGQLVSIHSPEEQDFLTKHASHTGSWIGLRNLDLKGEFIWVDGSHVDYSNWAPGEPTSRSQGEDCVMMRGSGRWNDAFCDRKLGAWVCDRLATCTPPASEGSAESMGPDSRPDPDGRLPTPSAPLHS

[2] = target: T2, soluble CD23 purified from the supernatant of human RPMI 8866 cells (human); assay: sandwich ELISA, sCD23 captured by BG-6, hybridoma supernatant

Measured: binding

B1: primate anti-human CD23 monoclonal antibody 6G5 (antibody, V domains shown)
VH: QLQLQESGPGVVKPSETLSLTCAVSGGSVSSSNWWTWIRQPPGKGLEWIGRISGSGGATNYNPSLKSRVIISQDTSKNQFSLNLNSVTAADTAVYYCARDWAQIAGTTLGFWGQGVLVTVSS
VL: QSAPTQPPSVSGSPGQSVTISCTGTSDDVGGYNYVSWYQHHPGKAPKLMIYDVAKRASGVSDRFSGSKSGNTASLTISGLQAEDEADYYCCSYTTSSTLLFGRGTRLTVLG
binds: all assays above
